The text below walks through data of publication PMC8313134.

Amino acid sequences for entries named in this document (tags omitted). A change or cut given only in a name is not applied to a line headed by its entry.
UniProt P0A850: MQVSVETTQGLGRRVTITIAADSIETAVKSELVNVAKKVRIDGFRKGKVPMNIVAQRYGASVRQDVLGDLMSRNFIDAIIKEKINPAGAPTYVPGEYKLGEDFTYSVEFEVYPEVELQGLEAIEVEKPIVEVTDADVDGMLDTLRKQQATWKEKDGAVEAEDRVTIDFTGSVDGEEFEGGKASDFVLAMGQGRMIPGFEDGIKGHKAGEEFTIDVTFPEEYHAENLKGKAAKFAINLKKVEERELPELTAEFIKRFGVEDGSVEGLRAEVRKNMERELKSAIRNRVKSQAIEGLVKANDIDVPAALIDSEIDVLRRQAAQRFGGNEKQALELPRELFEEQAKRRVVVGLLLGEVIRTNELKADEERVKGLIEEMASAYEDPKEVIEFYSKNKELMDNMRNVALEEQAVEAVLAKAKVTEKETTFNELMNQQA

The exact form of at least one protein or probe is not confirmed. Negatives hold for the conditions tested.

This data set addresses His-TF (trigger factor tag control) (UniProt P0A850). Put plainly: EMSA. The note with it: tag-only control; not given; EMSA as described in Ma et al. 2018; cold competitor 10x, 20x, 40x; recombinant protein; protein details: His. A general note: In EMSA bound probe runs differently from free probe, usually more slowly.

With “GTCGCTAAACTTGCCACGGTCCCACTTTTTCAACTCTTATTA (double strand) [Dq probe (DBR2 promoter)]”, the binding result is “no binding”.
